# Measured values reported in paper PMC7224386.
# Protein sequences, listed by entry. Tags and fused reporters are not part of them.
# UniProt Q9HAU4: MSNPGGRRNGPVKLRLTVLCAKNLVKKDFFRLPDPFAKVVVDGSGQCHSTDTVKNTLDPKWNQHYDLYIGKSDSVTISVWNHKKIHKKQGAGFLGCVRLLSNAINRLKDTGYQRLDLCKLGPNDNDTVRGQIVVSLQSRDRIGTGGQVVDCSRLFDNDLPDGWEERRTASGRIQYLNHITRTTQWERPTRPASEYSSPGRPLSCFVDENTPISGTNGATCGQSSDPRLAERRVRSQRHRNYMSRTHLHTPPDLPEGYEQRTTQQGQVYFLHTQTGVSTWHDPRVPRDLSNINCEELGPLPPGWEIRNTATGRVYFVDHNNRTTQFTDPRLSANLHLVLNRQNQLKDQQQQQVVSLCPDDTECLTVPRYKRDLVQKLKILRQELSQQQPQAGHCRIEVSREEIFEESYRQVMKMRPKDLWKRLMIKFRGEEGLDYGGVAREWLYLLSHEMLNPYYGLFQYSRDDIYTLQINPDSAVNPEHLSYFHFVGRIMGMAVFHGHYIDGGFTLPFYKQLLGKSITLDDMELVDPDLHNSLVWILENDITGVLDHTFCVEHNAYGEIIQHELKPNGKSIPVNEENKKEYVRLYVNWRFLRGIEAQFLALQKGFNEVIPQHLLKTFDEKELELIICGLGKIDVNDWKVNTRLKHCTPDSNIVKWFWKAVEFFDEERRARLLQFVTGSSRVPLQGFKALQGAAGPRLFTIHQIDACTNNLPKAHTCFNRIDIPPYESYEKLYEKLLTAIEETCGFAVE
# These are yes or no findings as the source states them, for the method shown. Binding seen in cells or lysates may run through a third protein. These calls come from enrichment with a bait or labelling near it, and not all partners need be listed.
# Biological target: T1, TNF receptor-associated factor 4 (TRAF4), endogenous in MSCs (human (endogenous in MSCs)) (UniProt Q9BUZ4)
# T1 sequence: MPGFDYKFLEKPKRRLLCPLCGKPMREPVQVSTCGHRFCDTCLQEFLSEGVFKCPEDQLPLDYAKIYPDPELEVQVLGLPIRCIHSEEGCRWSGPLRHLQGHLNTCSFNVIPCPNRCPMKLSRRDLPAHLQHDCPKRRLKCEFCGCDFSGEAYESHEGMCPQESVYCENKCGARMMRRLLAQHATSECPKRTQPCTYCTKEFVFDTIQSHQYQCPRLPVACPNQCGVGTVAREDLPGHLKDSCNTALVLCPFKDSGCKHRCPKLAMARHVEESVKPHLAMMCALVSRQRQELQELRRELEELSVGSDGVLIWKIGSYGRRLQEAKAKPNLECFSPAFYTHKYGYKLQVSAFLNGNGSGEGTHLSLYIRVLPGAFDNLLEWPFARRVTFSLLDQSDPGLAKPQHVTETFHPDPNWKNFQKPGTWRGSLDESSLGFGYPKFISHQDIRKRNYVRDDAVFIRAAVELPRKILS
# Test: affinity purification with mass spectrometry; MSCs during osteogenesis, extracts in modified RIPA buffer; immunoprecipitation with anti-TRAF4 and protein-G agarose at 4 °C; SDS-PAGE, Coomassie blue, differential bands analysed by LC-MS/MS
substance,measurement,value
"Smad ubiquitination-related factor 2 (Smurf2), endogenous in MSCs (from UniProt Q9HAU4 1-748)",binding,binds
